Assay results from doi:10.1101/2024.11.20.624400.
These are yes or no findings as the source states them, for the method shown. Some entries that bind do so weakly or less than the wild type. Where a sequence is shown, tags or fusion partners need not be part of it.

Chains of the proteins cited; added tags and fusions are not shown.
UniProt Q4F883: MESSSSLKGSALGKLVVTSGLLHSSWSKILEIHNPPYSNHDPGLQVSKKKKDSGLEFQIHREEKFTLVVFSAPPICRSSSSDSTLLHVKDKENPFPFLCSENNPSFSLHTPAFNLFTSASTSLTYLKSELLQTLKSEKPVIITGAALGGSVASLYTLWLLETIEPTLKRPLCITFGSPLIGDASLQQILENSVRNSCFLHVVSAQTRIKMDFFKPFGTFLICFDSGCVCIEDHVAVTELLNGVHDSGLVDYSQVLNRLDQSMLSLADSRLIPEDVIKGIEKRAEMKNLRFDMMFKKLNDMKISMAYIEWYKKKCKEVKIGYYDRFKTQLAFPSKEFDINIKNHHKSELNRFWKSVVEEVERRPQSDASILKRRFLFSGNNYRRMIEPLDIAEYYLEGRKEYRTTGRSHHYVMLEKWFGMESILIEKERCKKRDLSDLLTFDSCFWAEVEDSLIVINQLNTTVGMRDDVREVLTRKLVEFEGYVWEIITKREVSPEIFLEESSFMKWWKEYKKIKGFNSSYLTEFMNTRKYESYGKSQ

T1: A. thaliana EDS1, full length, in pDEST-GBKT7 (BD) (A. thaliana) (UniProt Q9SU72)
T1 sequence: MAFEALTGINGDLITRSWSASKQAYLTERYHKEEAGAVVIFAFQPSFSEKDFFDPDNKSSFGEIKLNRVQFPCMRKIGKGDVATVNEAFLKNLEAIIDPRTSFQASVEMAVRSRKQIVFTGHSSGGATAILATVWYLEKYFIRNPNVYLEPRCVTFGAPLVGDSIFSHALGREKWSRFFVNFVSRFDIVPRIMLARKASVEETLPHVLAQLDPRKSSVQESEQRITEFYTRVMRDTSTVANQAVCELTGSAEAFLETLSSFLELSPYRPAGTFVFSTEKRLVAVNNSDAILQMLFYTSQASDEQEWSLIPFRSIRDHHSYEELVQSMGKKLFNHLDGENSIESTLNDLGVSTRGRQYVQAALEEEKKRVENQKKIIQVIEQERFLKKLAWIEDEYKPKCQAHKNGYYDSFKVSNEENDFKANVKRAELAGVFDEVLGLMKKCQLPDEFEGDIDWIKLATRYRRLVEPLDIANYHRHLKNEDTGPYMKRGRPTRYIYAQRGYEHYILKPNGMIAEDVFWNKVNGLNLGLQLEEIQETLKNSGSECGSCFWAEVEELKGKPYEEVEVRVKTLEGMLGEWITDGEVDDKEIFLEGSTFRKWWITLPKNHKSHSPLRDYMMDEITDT


Target: T1, A. thaliana EDS1, full length, in pDEST-GBKT7 (BD) (A. thaliana)
Assay: two-hybrid

Row | Molecule | binding
1 | A. thaliana SAG101, full length, in pDEST-GADT7 (AD) (from UniProt Q4F883 1-537) | binds
2 | A. thaliana PAD4, full length, in pDEST-GADT7 (AD) (protein, UniProt Q9S745 1-541) MDDCRFETSELQASVMISTPLFTDSWSSCNTANCNGSIKIHDIAGITYVAIPAVSMIQLGNLVGLPVTGDVLFPGLSSDEPLPMVDAAILKLFLQLKIKEGLELELLGKKLVVITGHSTGGALAAFTALWLLSQSSPPSFRVFCITFGSPLLGNQSLSTSISRSRLAHNFCHVVSIHDLVPRSSNEQFWPFGTYLFCSDKGGVCLDNAGSVRLMFNILNTTATQNTEEHQRYGHYVFTLSHMFLKSRSFLGGSIPDNSYQAGVALAVEALGFSNDDTSGVLVKECIETATRIVRAPILRSAELANELASVLPARLEIQWYKDRCDASEEQLGYYDFFKRYSLKRDFKVNMSRIRLAKFWDTVIKMVETNELPFDFHLGKKWIYASQFYQLLAEPLDIANFYKNRDIKTGGHYLEGNRPKRYEVIDKWQKGVKVPEECVRSRYASTTQDTCFWAKLEQAKEWLDEARKESSDPQRRSLLREKIVPFESYANTLVTKKEVSLDVKAKNSSYSVWEANLKEFKCKMGYENEIEMVVDESDAMET | binds
